No constants are given. Whether binding was seen depends on the method and setting. Binding seen in cells or lysates may run through a third protein. Some binding calls cover weakened binding; strength is not graded here.

Protein sequences, listed by entry. Tags and fused reporters are not part of them. Lines headed by an entry give the natural chain unless they say otherwise; changes in a name come on top. Residues count along the entry.
UniProt P0A6F5, residues 2-548: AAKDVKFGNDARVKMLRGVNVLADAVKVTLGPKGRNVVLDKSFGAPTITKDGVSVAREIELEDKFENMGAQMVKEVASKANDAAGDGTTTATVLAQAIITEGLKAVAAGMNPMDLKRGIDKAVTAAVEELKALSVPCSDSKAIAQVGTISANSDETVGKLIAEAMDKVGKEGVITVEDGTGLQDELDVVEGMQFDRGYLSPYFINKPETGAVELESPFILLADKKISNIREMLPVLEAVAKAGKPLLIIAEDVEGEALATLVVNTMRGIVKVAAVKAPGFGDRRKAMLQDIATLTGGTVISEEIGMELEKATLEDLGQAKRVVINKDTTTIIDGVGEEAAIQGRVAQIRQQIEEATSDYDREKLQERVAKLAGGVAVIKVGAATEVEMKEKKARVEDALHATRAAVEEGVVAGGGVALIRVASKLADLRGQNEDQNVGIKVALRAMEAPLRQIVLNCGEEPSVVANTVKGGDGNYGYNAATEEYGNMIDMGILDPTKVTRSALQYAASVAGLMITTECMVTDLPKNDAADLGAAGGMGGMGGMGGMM
UniProt P97477: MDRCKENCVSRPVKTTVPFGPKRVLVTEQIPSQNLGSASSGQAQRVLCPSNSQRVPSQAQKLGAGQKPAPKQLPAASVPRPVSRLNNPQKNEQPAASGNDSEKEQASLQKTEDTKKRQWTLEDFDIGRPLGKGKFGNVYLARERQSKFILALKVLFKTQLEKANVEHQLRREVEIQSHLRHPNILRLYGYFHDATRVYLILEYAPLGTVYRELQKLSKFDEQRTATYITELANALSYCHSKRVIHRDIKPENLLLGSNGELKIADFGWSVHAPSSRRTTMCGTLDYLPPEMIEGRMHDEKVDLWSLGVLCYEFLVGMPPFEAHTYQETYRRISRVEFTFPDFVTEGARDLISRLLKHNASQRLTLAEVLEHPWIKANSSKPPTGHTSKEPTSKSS
UniProt O70126: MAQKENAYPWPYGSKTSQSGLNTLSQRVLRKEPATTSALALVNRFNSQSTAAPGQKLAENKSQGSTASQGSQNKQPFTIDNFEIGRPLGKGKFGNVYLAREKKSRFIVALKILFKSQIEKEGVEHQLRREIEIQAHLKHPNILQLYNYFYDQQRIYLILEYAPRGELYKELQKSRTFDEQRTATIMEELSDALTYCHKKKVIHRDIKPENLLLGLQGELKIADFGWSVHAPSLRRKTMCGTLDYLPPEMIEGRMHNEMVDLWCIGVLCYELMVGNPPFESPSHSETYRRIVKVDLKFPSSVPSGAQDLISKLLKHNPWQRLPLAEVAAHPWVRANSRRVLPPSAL

The target of assay [1] is bacterial chaperone protein GroEL (E. coli) (UniProt P0A6F5). The assay can be described thus: copurification; complexes removed on Q-Sepharose.
Assay [2] shares this target. As to the kind of experiment: copurification from E. coli lysate.

Take “mouse Aurora-A residues 116-381 (corresponds to 125-391 human) (from UniProt P97477 116-381) (enzyme)”: the binding entry in assay [1] is “binds”.

As to “mouse Aurora-A residues 98-395 (corresponds to 107-403 human) (from UniProt P97477 97-395) (enzyme)”, the binding result in assay [1] is listed as “binds”.

Turning to “wild-type full-length mouse Aurora-B (from UniProt O70126 1-345) (enzyme)”, the binding result in assay [2] is recorded as “binds”.

(Values after patent publication US20080020412A1, “Aurora expression constructs” (priority 2006, published 2008).)
